Several values for one entry are separate records, joined by “and”; a condition that tells them apart may be missing. Equal values may be shown once. This list was built around the results that the source calls inconclusive (neither active nor inactive); the mix of calls is not that of the screen. Potencies of inconclusive entries are doubtful fits and often do not repeat. Activity calls are given as the source filed them. Calls come from the whole dose curve; as a rule, active = well fitted inhibition curve with a large enough effect in the repeat runs; inconclusive = weak or mixed curves; inactive = no such curve, though single readings can be large or run the other way.
Molecular target: Cytochrome P450 2C9 (Homo sapiens) (UniProt P11712)
Experiment: Cytochrome P450 Family 2 Subfamily C Member 9 (CYP2C9) small molecule antagonists: luciferase reporter qHTS assay (AID 1671198); note: nearly all actives have a fitted effect of over 50% in size
Settings: P450-Glo CYP2C9 enzyme assay, luciferin luminescence; series mostly up to 115 µM; activity change, negative = inhibition: at the top concentration
Text: U.S. Tox21 Program National Center for Advancing Translational Sciences [NCATS] U.S. Environmental Protection Agency [EPA] National Institutes of Environmental Health Sciences [NIEHS] National Toxicology Program [NTP] U.S. Food and Drug Administration [FDA] Tox21 Assay Overview: Cytochrome P450 (CYP) enzymes are membrane-bound hemeproteins that play a key role in metabolism of drugs and xenobiotics. Evaluation of the effect of chemicals on CYP isozymes is useful to minimize the adverse drug reactions and toxicities in drug development process. Tox21 chemicals were tested for their effect on CYP enzyme activities by using P450-Glo (TM) screening systems (Promega Corporation, Madison, WI). These systems provide a luminescent method containing proluciferin substrates and are converted to luciferin products by CYP isozymes. The luciferin products formed are detected with a luciferin detection reagent, and the amount of light produced is proportional to CYP activity. P450-Glo (TM) CYP2C9 screening system (Catalog. No. V9790) was used to detect the compounds that interfere in CYP2C9 activity.
Tox21 Assay Protocol Summary: Two ul of enzyme-substrate mix was dispensed into medium binding white/solid 1536-well plates (Greiner Bio-One North America Inc., Monroe, NC) using a BioRaptr Flying Reagent Dispenser (FRD, Beckman Coulter, Brea, CA). […] The assay plates were incubated at room temperature for 10 min. Then 2 ul of NADPH regeneration solution was added to each well of the assay plates using an FRD and incubated at 37C for 1 h. The reaction was stopped by adding 4 ul of detection reagent using an FRD and after 20 min incubation at room temperature the luminescence signal was measured using a ViewLux plate reader (Perkin Elmer, Shelton, CT). Data were expressed as relative luminescence units.
% is set by controls: 0 for no effect and ±100 for the full control effect; potency is the fitted concentration of half-maximal effect.

Chains of the proteins cited; added tags and fusions are not shown.
UniProt P11712, whole entry, looked up: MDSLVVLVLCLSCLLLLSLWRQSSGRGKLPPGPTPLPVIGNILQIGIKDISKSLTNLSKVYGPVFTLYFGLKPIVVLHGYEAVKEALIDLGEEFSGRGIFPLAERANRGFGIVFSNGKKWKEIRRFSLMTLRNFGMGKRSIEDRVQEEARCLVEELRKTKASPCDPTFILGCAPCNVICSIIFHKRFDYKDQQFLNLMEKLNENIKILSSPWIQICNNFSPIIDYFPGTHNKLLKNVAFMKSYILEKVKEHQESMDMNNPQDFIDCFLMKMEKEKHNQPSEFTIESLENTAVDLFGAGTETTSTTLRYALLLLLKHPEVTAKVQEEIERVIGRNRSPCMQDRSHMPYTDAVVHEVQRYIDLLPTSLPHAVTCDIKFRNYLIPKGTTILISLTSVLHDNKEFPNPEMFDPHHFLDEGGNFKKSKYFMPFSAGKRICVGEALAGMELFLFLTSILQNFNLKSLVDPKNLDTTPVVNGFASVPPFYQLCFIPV

SMILES	Potency	activity change, negative = inhibition
CCOCN(C(=O)CS(=O)(=O)O)c1c(C)cccc1CC	inconclusive: 79.6 µM [inhibitor]	
CCOC(=O)COc1ccc2c(c1)CC(NCC(O)c1cccc(Cl)c1)CC2 (stereo not given)	active: 35.9 µM	
C=CCCCCCCCCC(=O)O	inconclusive: 34.7 µM [inhibitor, partial curve]	
CCCOC(=O)c1ccc(N)cc1	inconclusive: 13.8 µM [inhibitor, partial curve]	
COc1cc(C(C)C)ccc1C		inactive: -6.13% [at 23.6 µM]
CC(=O)OCC(=O)[C@@]12N=C(C)O[C@@H]1C[C@H]1[C@@H]3CCC4=CC(=O)C=C[C@]4(C)[C@H]3[C@@H](O)C[C@@]12C	inconclusive: 39.9 µM [inhibitor, partial curve]	
O=C(O)c1cc(=O)c2c(OCC(O)COc3cccc4oc(C(=O)O)cc(=O)c34)cccc2o1	inactive	
Cc1cccc(O)c1	inactive	
CCN(CC)c1ccc(N=Nc2ccccc2)cc1	active: 10 µM	
CN1CCN(C(c2ccccc2)c2ccccc2)CC1		inactive: 0.97% [at 53 µM]
CCCCC(=O)O[C@]1(C(=O)CO)CC[C@H]2[C@@H]3CCC4=CC(=O)CC[C@]4(C)[C@H]3[C@@H](O)C[C@@]21C	inconclusive: 34.7 µM [inhibitor, partial curve]	
CCCCCCCCCCCCOCCO	inconclusive: 34.7 µM [inhibitor, partial curve]	
Cc1cn([C@@H]2O[C@H](CO)[C@@H](O)[C@@H]2F)c(=O)[nH]c1=O		inactive: 5.72% [at 53 µM]
CC(C)Cc1nccs1	inconclusive: 36.2 µM [inhibitor, partial curve]	
NCCCCCC(=O)O		inactive: 1.57% [at 53 µM]
COC(=O)c1cc(Cl)ccc1NS(=O)(=O)C(F)(F)F		inactive: -0.769% [at 53 µM]
CCC(C)(C)C1CCC(OC)CC1 (stereo not given)	inconclusive: 71 µM [inhibitor, partial curve]	
CC(C)(C)c1cc(CCC(=O)NN)cc(C(C)(C)C)c1O	active: 5.03 µM	
CCCCN(CCO)CCCC	inconclusive: 72.5 µM [inhibitor, partial curve, poor fit]	
CCCCCCCOC(=O)c1ccccc1C(=O)OCCCCCCC	active: 17.8 µM	

SMILES	Potency	activity change, negative = inhibition
CCCc1ccc(O)c(OC)c1		inactive: -16.9%
CCOc1cc(OCC)c(C(C)=O)cc1OCC	inconclusive: 35 µM [inhibitor, partial curve]	
O=C(c1ccc(Cl)cc1)c1ccc(Cl)cc1	inconclusive: 6.33 µM [inhibitor, full curve]	
COc1c(Cl)ccc(Cl)c1C(=O)O	inconclusive: 80 µM [inhibitor, partial curve, poor fit]	
NCCCN(CCO)CCO		inactive: 11.4%
CC1CCc2c(N3CCC(O)CC3)c(F)cc3c(=O)c(C(=O)O)cn1c23 (stereo not given)	inconclusive: 17.4 µM [inhibitor, partial curve, poor fit]	
OC[C@H]1O[C@@H](OCCc2ccc(O)cc2)[C@H](O)[C@@H](O)[C@@H]1O		inactive: 12.3% [at 53 µM]
O=S(=O)(O)c1cccc2ccccc12	inconclusive: 39.9 µM [inhibitor, partial curve]	
CC1(C)C(=O)NC(=O)N1CO		inactive: -18.8%
CC(=O)OCC(=O)[C@@]1(O)CC[C@H]2[C@@H]3CCC4=CC(=O)C=C[C@]4(C)[C@@]3(F)[C@@H](O)C[C@@]21C	inconclusive: 0.55 µM [inhibitor, partial curve]	
CC(=O)OC[C@H]1O[C@@](COC(C)=O)(O[C@H]2O[C@H](COC(C)=O)[C@@H](OC(C)=O)[C@H](OC(C)=O)[C@H]2OC(C)=O)[C@@H](OC(C)=O)[C@@H]1OC(C)=O	inconclusive: 45.1 µM [inhibitor, partial curve] and inconclusive: 38.9 µM [inhibitor, partial curve, poor fit]	
CCCCCC/C(C=O)=C\c1ccccc1	inconclusive: 64 µM [inhibitor, partial curve]	
CC(C)CC=O	inconclusive: 56.4 µM [inhibitor, partial curve]	
C=C(C)C(N)=O	inconclusive: 90.2 µM [inhibitor, partial curve, poor fit] and inconclusive: 79.6 µM [inhibitor, single point]	
C=CC(C)(O)CCCC(C)CCCC(C)CCCC(C)C (stereo not given)	inconclusive: 88.9 µM [inhibitor, partial curve, poor fit]	
O=C(OC1C[C@H]2CC[C@@H](C1)[N+]21CCCC1)C(O)(c1ccccc1)c1ccccc1 (stereo not given in full)		inactive: -6.29% [at 53 µM]
CO[C@@]1(NC(=O)CSCC#N)C(=O)N2C(C(=O)O)=C(CSc3nnnn3C)CS[C@@H]21	inconclusive: 27.5 µM [inhibitor, partial curve, poor fit]	
c1ccc2c(c1)-c1ccc3ccc4cccc5cc-2c1c3c45	inconclusive: 5.49 µM [inhibitor, full curve, poor fit]	
O=C(O)c1ccccc1-c1ccc(C(F)(F)F)cc1	inconclusive: 30.9 µM [inhibitor, partial curve]	
C=CC(O)CCCCC (stereo not given)		inactive: 1.01%

Structural class, the entries above containing an aryl methoxy group
SMILES	Potency	activity change, negative = inhibition
COc1cc(C(C)C)ccc1C		inactive: -6.13% [at 23.6 µM]
CCCc1ccc(O)c(OC)c1		inactive: -16.9%
COc1c(Cl)ccc(Cl)c1C(=O)O	inconclusive: 80 µM [inhibitor, partial curve, poor fit]	

From PubChem BioAssay (Tox21)
